Reference: PubChem BioAssay AID1259405 (NCATS, 2018)
Assay: 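Mouse-designed siRNAs used to find CHO productivity engineering targets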 (primary screen). Cells: Chinese hamster CHO-K1 ovary cells with stable secreted eGFP expression. Knock-down reagent: single siRNA against mouse genes, 0.8 pmol siRNA per well (2 µl of 400 nM stock). Duration: 3 days. Read-out: 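Per-well intracellular GFP measured by laser scanning cytometry, plus viability from ATP luminescence, each relative to plate median of non-targeting control wells, in %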. Scale: GFP, % of control: higher = more GFP per well, higher productivity; viability (ATP), % of control: higher = more viable cells (more ATP). Rule for the call: 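Called active when intracellular GFP, relative to negative control, is at or above 120%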.
In all, the deposit lists about 50,000 reagents; this is a part drawn at random. About 4,000 of all reagents (8%) were called active. 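Mouse siRNA library applied to hamster cells; one well for each siRNA.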 The numbers tell different reagents against one gene apart. No sequences are given here.

target gene | reagent | GFP, % of control | viability (ATP), % of control | call
Fanca (Fanconi anemia, complementation group A) | 1 | 32.9 | 101 | inactive
Fanca (Fanconi anemia, complementation group A) | 2 | 125 | 84 | active
Lsm2 | 1 | 87.5 | 105 | inactive
Lsm2 | 2 | 110 | 101 | inactive
Lsm2 | 3 | 82.3 | 75.6 | inactive
Ugt2a1 (UDP glucuronosyltransferase 2 family, polypeptide A1) | 1 | 126 | 98.6 | active
Ugt2a1 (UDP glucuronosyltransferase 2 family, polypeptide A1) | 2 | 76.2 | 135 | inactive
Ugt2a1 (UDP glucuronosyltransferase 2 family, polypeptide A1) | 3 | 95.3 | 95.6 | inactive
Lce3b (late cornified envelope 3B) | 1 | 43.8 | 54 | inactive
Lce3b (late cornified envelope 3B) | 2 | 129 | 76.8 | active
Kdf1 (keratinocyte differentiation factor 1) | 1 | 76 | 77.9 | inactive
Kdf1 (keratinocyte differentiation factor 1) | 2 | 31.7 | 35.5 | inactive
Kdf1 (keratinocyte differentiation factor 1) | 3 | 50.9 | 77.4 | inactive
Grpr (gastrin releasing peptide receptor) | 1 | 82.3 | 82.4 | inactive
Grpr (gastrin releasing peptide receptor) | 2 | 74.3 | 88.2 | inactive
Grpr (gastrin releasing peptide receptor) | 3 | 100 | 93.3 | inactive
Poldip3 (polymerase (DNA-directed), delta interacting protein 3) | 1 | 125 | 94.1 | active
Poldip3 (polymerase (DNA-directed), delta interacting protein 3) | 2 | 106 | 71.9 | inactive
Ddx3y (DEAD box helicase 3, Y-linked) | 1 | 87.2 | 73.5 | inactive
Ddx3y (DEAD box helicase 3, Y-linked) | 2 | 57.7 | 56 | inactive
Ddx3y (DEAD box helicase 3, Y-linked) | 3 | 66.8 | 76.7 | inactive
Msx3 (msh homeobox 3) | 1 | 64.1 | 83.9 | inactive
Msx3 (msh homeobox 3) | 2 | 57.8 | 68.5 | inactive
Msx3 (msh homeobox 3) | 3 | 41.2 | 63.5 | inactive
Smim48 (small integral membrane protein 48) | 1 | 101 | 59.3 | inactive
Smim48 (small integral membrane protein 48) | 2 | 94.2 | 91.9 | inactive
Smim48 (small integral membrane protein 48) | 3 | 97.1 | 73.3 | inactive
Pcdhb22 (protocadherin beta 22) | 1 | 82.1 | 81 | inactive
Pcdhb22 (protocadherin beta 22) | 2 | 109 | 68.3 | inactive
N4bp2 (NEDD4 binding protein 2) | 1 | 61.5 | 60.2 | inactive
N4bp2 (NEDD4 binding protein 2) | 2 | 95.2 | 85.6 | inactive
N4bp2 (NEDD4 binding protein 2) | 3 | 74.1 | 55.4 | inactive
Or4a66 (olfactory receptor family 4 subfamily A member 66) | 1 | 56.3 | 73.2 | inactive
Or4a66 (olfactory receptor family 4 subfamily A member 66) | 2 | 67.9 | 83.6 | inactive
Or4a66 (olfactory receptor family 4 subfamily A member 66) | 3 | 40.5 | 80.9 | inactive

Records above whose gene name begins with G or g:
target gene | reagent | GFP, % of control | viability (ATP), % of control | call
Grpr (gastrin releasing peptide receptor) | 1 | 82.3 | 82.4 | inactive
Grpr (gastrin releasing peptide receptor) | 2 | 74.3 | 88.2 | inactive
Grpr (gastrin releasing peptide receptor) | 3 | 100 | 93.3 | inactive

Continued:
target gene | reagent | GFP, % of control | viability (ATP), % of control | call
Uba6 (ubiquitin-like modifier activating enzyme 6) | 1 | 56.2 | 53.5 | inactive
Uba6 (ubiquitin-like modifier activating enzyme 6) | 2 | 59.9 | 44.6 | inactive
Uba6 (ubiquitin-like modifier activating enzyme 6) | 3 | 78.4 | 72.4 | inactive
Chrm4 (cholinergic receptor, muscarinic 4) | 1 | 109 | 61.8 | inactive
Chrm4 (cholinergic receptor, muscarinic 4) | 2 | 58.1 | 79.2 | inactive
Chrm4 (cholinergic receptor, muscarinic 4) | 3 | 68.3 | 63.1 | inactive
Gga3 | 1 | 155 | 103 | active
Gga3 | 2 | 39.5 | 41.3 | inactive
Gga3 | 3 | 50.6 | 93.8 | inactive
Dnmt3a (DNA methyltransferase 3A) | 1 | 87.7 | 71.9 | inactive
Dnmt3a (DNA methyltransferase 3A) | 2 | 118 | 71 | inactive
Dnmt3a (DNA methyltransferase 3A) | 3 | 78.8 | 76 | inactive
Serpina3m (serine (or cysteine) peptidase inhibitor, clade A, member 3M) | 1 | 95 | 61.1 | inactive
Serpina3m (serine (or cysteine) peptidase inhibitor, clade A, member 3M) | 2 | 60 | 67.6 | inactive
Serpina3m (serine (or cysteine) peptidase inhibitor, clade A, member 3M) | 3 | 156 | 146 | active
Gpc1 (glypican 1) | 1 | 148 | 85 | active
Gpc1 (glypican 1) | 2 | 73.3 | 70.1 | inactive
Gpc1 (glypican 1) | 3 | 88.8 | 86.5 | inactive
Agap3 (ArfGAP with GTPase domain, ankyrin repeat and PH domain 3) | 1 | 88.7 | 82.9 | inactive
Agap3 (ArfGAP with GTPase domain, ankyrin repeat and PH domain 3) | 2 | 83.9 | 81 | inactive
Agap3 (ArfGAP with GTPase domain, ankyrin repeat and PH domain 3) | 3 | 37.8 | 38.8 | inactive
Ddx19a (DEAD box helicase 19a) | 1 | 71.6 | 77.4 | inactive
Ddx19a (DEAD box helicase 19a) | 2 | 61.5 | 65.3 | inactive
Ddx19a (DEAD box helicase 19a) | 3 | 104 | 92.1 | inactive
